# Percent effect of library compounds

Chains of the proteins cited; added tags and fusions are not shown. Residues count along the entry.
UniProt Q8IDJ8, 1-583: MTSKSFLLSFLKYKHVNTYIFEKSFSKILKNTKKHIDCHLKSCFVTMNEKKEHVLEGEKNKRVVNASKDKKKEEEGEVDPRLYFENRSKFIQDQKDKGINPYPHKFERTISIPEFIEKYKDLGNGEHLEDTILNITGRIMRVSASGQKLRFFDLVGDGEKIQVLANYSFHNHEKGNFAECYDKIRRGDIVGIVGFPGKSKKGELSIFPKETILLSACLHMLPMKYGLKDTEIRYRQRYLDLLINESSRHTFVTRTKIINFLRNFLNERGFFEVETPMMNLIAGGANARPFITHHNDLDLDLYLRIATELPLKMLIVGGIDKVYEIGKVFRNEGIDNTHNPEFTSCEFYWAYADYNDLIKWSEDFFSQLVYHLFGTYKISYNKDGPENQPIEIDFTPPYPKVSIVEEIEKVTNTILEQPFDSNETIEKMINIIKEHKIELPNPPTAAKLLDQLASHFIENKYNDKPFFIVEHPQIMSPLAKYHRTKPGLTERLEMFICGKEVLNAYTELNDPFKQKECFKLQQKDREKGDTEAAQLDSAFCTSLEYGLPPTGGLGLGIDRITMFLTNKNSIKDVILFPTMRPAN
UniProt I6X8D2, whole entry: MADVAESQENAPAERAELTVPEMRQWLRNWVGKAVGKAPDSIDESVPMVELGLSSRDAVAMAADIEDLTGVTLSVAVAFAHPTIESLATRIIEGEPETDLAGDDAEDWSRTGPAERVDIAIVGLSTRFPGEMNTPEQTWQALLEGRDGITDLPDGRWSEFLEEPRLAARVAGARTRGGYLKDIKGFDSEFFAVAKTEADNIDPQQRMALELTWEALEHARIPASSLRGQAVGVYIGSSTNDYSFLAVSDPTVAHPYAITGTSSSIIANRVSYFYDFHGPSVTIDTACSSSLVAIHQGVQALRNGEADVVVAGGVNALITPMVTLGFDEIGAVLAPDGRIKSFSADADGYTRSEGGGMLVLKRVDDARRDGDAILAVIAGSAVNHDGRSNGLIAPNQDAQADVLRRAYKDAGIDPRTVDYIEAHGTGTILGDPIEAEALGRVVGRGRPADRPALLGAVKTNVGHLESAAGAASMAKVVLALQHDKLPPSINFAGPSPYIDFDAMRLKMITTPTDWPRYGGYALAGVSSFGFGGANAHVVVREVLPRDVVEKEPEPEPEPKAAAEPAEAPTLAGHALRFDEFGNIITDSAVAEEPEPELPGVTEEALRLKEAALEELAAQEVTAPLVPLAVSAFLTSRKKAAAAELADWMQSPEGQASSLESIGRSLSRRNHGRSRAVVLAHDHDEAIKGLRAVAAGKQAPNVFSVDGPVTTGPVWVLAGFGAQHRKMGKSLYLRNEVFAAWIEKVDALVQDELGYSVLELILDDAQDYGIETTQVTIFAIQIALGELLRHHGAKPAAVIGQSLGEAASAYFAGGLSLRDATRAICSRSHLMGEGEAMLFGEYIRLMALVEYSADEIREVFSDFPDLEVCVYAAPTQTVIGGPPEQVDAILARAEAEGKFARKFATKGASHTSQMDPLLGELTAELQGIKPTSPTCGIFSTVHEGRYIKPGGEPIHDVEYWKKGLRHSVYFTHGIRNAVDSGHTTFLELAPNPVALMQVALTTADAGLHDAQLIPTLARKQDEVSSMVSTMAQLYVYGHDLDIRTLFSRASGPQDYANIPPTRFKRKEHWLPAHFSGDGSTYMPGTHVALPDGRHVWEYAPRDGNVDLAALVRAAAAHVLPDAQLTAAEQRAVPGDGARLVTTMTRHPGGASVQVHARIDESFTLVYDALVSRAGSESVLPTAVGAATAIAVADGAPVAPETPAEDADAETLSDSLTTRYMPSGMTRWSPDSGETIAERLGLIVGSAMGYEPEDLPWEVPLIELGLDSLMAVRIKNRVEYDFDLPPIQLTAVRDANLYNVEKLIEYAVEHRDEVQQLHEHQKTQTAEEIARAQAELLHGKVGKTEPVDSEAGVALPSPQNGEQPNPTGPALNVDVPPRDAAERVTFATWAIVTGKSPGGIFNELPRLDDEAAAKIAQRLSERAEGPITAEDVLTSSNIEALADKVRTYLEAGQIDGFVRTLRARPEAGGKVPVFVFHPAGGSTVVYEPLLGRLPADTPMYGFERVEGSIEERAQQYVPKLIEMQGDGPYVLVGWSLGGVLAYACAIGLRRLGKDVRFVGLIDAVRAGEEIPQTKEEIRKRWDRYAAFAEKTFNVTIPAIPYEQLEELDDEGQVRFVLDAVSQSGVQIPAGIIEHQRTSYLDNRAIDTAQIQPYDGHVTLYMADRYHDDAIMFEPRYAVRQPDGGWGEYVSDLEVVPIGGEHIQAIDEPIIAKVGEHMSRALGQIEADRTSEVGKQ
UniProt P9WNZ1, whole entry: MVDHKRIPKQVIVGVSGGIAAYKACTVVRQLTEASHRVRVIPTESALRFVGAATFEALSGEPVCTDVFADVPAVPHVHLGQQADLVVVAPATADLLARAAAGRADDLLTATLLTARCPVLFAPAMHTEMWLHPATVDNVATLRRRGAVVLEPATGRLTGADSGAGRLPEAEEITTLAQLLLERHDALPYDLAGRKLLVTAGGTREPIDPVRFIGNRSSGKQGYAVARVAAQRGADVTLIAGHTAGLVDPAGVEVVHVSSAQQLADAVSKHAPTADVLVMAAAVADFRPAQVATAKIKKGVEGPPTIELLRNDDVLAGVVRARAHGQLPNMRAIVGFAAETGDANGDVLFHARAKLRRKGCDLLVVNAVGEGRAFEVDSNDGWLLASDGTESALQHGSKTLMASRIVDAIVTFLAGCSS
UniProt Q4DA54, 1-478: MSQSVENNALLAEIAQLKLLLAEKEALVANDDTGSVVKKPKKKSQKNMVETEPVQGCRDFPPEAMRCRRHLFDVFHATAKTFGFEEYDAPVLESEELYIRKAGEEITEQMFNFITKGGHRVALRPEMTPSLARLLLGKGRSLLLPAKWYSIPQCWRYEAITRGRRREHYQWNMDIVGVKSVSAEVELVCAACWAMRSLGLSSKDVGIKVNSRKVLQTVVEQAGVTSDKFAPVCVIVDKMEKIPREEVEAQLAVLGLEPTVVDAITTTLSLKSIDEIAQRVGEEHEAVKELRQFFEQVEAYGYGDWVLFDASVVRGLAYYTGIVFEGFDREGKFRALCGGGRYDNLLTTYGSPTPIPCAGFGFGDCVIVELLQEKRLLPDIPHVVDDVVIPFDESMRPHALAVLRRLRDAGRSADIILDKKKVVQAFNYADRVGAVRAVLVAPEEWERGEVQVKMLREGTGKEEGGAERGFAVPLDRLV
UniProt P9WFT3, whole entry: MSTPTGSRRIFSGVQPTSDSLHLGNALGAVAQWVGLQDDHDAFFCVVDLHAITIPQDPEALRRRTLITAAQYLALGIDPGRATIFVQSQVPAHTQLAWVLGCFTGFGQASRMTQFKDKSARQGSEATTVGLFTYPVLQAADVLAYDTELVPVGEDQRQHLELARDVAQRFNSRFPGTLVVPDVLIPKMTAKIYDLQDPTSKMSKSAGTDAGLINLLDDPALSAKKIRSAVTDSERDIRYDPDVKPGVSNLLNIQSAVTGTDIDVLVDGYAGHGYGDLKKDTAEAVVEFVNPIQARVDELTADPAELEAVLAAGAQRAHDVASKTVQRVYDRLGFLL
UniProt P9WPC5, whole entry: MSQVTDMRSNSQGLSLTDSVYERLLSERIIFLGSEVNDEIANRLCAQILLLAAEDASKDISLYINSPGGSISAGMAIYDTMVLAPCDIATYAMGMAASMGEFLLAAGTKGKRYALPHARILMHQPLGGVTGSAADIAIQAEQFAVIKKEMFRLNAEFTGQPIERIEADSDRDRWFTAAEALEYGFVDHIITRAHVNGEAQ
UniProt P9WPC3, whole entry partner: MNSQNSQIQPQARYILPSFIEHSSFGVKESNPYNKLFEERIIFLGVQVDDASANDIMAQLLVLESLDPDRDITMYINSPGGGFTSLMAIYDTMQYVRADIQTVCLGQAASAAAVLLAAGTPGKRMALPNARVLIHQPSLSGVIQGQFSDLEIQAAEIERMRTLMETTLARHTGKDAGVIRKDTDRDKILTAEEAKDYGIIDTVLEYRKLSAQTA

Data taken from ChEMBL document CHEMBL3988442, “University of Dundee, Small-Polar-MMV Screening Library” (2021).

PfKRS1: 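Lysine-tRNA ligase, Plasmodium falciparum 3D7 (UniProt Q8IDJ8). Enzyme assay of the cytosolic lysyl-tRNA synthetase in 384-well plates, read by luminescence. Concentration: 30 µM. Higher reads as stronger inhibition, judged from the few compounds that gave an IC50. About 69,000 compounds were tested under these conditions; 0.071% (about 49) showed 50% or more at least once.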
Pks13 thioesterase: 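Polyketide synthase Pks13, Mycobacterium tuberculosis (UniProt I6X8D2). Enzyme assay of the thioesterase domain of polyketide synthase 13; the read-out is not stated. Compounds at 30 µM. The record gives no direction; the compounds picked for IC50 retests had high values, so higher reads as stronger inhibition. Of about 67,000 compounds tested this way, about 300 (0.46%) reached 50% or more in at least one test.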
CoaBC: 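Coenzyme A biosynthesis protein CoaBC, Mycobacterium tuberculosis (UniProt P9WNZ1). Enzyme assay of CoaBC with a phosphate dye (Biomol Green) read at 650 nm. Concentration: 30 µM. Direction is inferred from only a few compounds that gave an IC50; most scored high, so higher reads as stronger inhibition. Most strong results did not repeat in a second test. Size under these conditions: about 67,000 compounds, about 40 of them at 50% or above in at least one test.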
TcHisRS: 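Histidine-tRNA ligase, Trypanosoma cruzi CL Brener (UniProt Q4DA54). Enzyme assay of histidyl-tRNA synthetase; the read-out is not stated. Tested at 30 µM. Direction is inferred from retests: higher values go with stronger inhibition. About 69,000 compounds were tested under these conditions; 0.045% (about 31) showed 50% or more at least once.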
MtTrpRS: 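Enzyme assay of tryptophanyl-tRNA synthetase; the read-out is not stated. Target: Tryptophan-tRNA ligase, Mycobacterium tuberculosis (UniProt P9WFT3). Tested at 10 µM. Direction is not recorded; retested compounds ran higher, which suggests that high means inhibition. About 65,000 compounds were tested under these conditions; 0.098% (about 64) showed 50% or more at least once.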
ClpP1P2: 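Protease assay of ClpP1P2, read by the AMC dye that it sets free. Target: ClpP1P2, Mycobacterium tuberculosis (UniProt P9WPC5 and UniProt P9WPC3). Concentration: 50 µM. Direction is inferred from only a few compounds that gave an IC50; most scored high, so higher reads as stronger inhibition. Most other retested compounds had strongly negative values. Of about 69,000 compounds tested this way, about 10 (0.015%) reached 50% or more in at least one test.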

The filed quantity is “Percent Effect” (%). How 0% and 100% were set is not recorded. Most values in the screen are low, and negative values occur. This is an unselected part of the compounds tested.

Result for CN1C(=O)CC(c2cnn(C)c2)C12CCN(C(=O)c1cccn1C)CC2 (centres unmarked) was PfKRS1: 3.929%; Pks13 thioesterase: 6.96%; CoaBC: -2.231%; TcHisRS: 15.97%; MtTrpRS: -0.8403%; ClpP1P2: 11.19%.
Result for N#Cc1cnn(-c2ccc(C(=O)Nc3ccccn3)cc2)c1N was PfKRS1: 6.293%; Pks13 thioesterase: -13.54%; CoaBC: 2.314%; TcHisRS: 1.504%; MtTrpRS: -2.754%; ClpP1P2: 7.781%.
Result for CC(C)C1CN(S(=O)(=O)Cc2cccc(C#N)c2)CCS1 (centres unmarked) was PfKRS1: 5.701%; Pks13 thioesterase: -36.05%; CoaBC: 6.483%; TcHisRS: 2.02%; MtTrpRS: 3.936%; ClpP1P2: -3.799%.
Result for COc1cccc(-c2n[nH]cc2-c2nc(CC3CCN(C)CC3)no2)c1 was PfKRS1: 4.301%; Pks13 thioesterase: -12.27%; CoaBC: 1.597%; TcHisRS: 14.29%; MtTrpRS: -0.2463%; ClpP1P2: 6.418%.
Result for O=C([C@H]1CCS(=O)(=O)[C@@H]2CN(CCc3ccccc3)C[C@H]12)N1CCCC1 was PfKRS1: 7.99%; Pks13 thioesterase: -10.53%; CoaBC: -2.439%; TcHisRS: 2.941%; MtTrpRS: 0.7333%; ClpP1P2: -8.125%.
Result for CC(C)(C)CNC[C@H]1Cn2c(-c3ccccc3)cnc2CO1 was PfKRS1: 5.019%; Pks13 thioesterase: 13.19%; CoaBC: 8.168%; TcHisRS: 5.435%; MtTrpRS: -5.994%; ClpP1P2: 2.964%.
Result for CCOC(=O)N1CC(=O)N(Cc2cccc(OC)c2OC)CC(O)C1 (centres unmarked) was PfKRS1: 3.849%; Pks13 thioesterase: 11.97%; CoaBC: 3.148%; TcHisRS: 5.618%; ClpP1P2: 13.02%.
Result for Cc1ccn2cc(C(=O)N3CCCC(Cn4cc(CO)nn4)C3)nc2c1 (centres unmarked) was PfKRS1: 1.735%; Pks13 thioesterase: -16.57%; CoaBC: 7.522%; TcHisRS: -1.754%; MtTrpRS: -1.051%; ClpP1P2: -18.94%.
Result for CC(Cc1cccc(F)c1)NCc1cnc(N2CCN(C)CC2)nc1 (centres unmarked) was PfKRS1: -2.684%; Pks13 thioesterase: -7.827%; CoaBC: 1.401%; TcHisRS: 0.5525%; MtTrpRS: 3.988%; ClpP1P2: -0.9002%.
Result for CN(C)C(=O)c1cccc(NC(=O)N(CCO)Cc2ccsc2)c1 was PfKRS1: 5.664%; Pks13 thioesterase: -14.81%; CoaBC: 0%; TcHisRS: 1.626%; MtTrpRS: -3.791%; ClpP1P2: -2.059%.
Result for Cc1noc(C(C)NC(=O)[C@@H](C)NC(=O)OC(C)(C)C)n1 (some centres unmarked) was PfKRS1: 1.91%; Pks13 thioesterase: -8.003%; CoaBC: -1.651%; TcHisRS: 6.186%; MtTrpRS: 1.232%; ClpP1P2: 7.094%.
Result for CN(Cc1cnn(C)c1)C(=O)Cc1ccc2c(c1)OCCO2 was PfKRS1: 3.944%; Pks13 thioesterase: 4.33%; CoaBC: -2.689%; TcHisRS: -9.202%; MtTrpRS: 2.185%; ClpP1P2: 8.192%.
Result for c1c[nH]c2nc(C3CCNCC3)nc-2c1 was PfKRS1: 2.101%; Pks13 thioesterase: -7.332%; CoaBC: -7.632%; TcHisRS: -0.5917%; MtTrpRS: 0.9507%; ClpP1P2: 5.568%.

Some entries from above, unchanged:

{"compound": "CC(Cc1cccc(F)c1)NCc1cnc(N2CCN(C)CC2)nc1", "stereo": "centres unmarked", "PfKRS1": -2.684, "Pks13 thioesterase": -7.827, "CoaBC": 1.401, "TcHisRS": 0.5525, "MtTrpRS": 3.988, "ClpP1P2": -0.9002}
{"compound": "O=C([C@H]1CCS(=O)(=O)[C@@H]2CN(CCc3ccccc3)C[C@H]12)N1CCCC1", "PfKRS1": 7.99, "Pks13 thioesterase": -10.53, "CoaBC": -2.439, "TcHisRS": 2.941, "MtTrpRS": 0.7333, "ClpP1P2": -8.125}